Consider 20 compounds from PubChem BioAssay AID330 (DTP/NCI, 2004).

For this assay, the system named is P388 leukemia ip, CD2F1 mice, survival T/C. Nature of the assay: NCI In Vivo Anticancer Drug Screen. Data for tumor model P388 Leukemia (intraperitoneal) in CD2F1 (CDF1) mice. Particulars: T/C endpoint: median survival time, higher T/C = longer survival.
[1] abbreviates: dose: 200.0 mg/kg/injection, schedule: Q01DX009 (ip), vehicle: saline.
[2] abbreviates: dose: 50.0 mg/kg/injection, schedule: Q01DX005 (ip), vehicle: saline.
[3] abbreviates: dose: 100.0 mg/kg/injection, schedule: Q01DX005 (ip), vehicle: saline.
[4] abbreviates: dose: 200.0 mg/kg/injection, schedule: Q01DX005 (ip), vehicle: saline.
[5] abbreviates: dose: 10.0 mg/kg/injection, schedule: Q01DX009 (ip), vehicle: Klucel (hydroxypropylcellulose) (HPC).
[6] abbreviates: dose: 20.0 mg/kg/injection, schedule: Q01DX009 (ip), vehicle: Klucel (hydroxypropylcellulose) (HPC).
Where [7] appears, read: dose: 50.0 mg/kg/injection, schedule: Q01DX009 (ip), vehicle: saline.
Setting [8] is: dose: 100.0 mg/kg/injection, schedule: Q01DX009 (ip), vehicle: saline with Tween-80.
Setting [9] is: dose: 200.0 mg/kg/injection, schedule: Q01DX009 (ip), vehicle: saline with Tween-80.
[10] abbreviates: dose: 25.0 mg/kg/injection, schedule: Q01DX009 (ip), vehicle: saline.

The list is a part of this screen's results and no random one: it is rich in T/C values a quarter to a half above the control, in often repeated tests (any T/C) and in doses without a T/C. Further doses and runs are listed elsewhere. T/C is the treated group as % of the vehicle group. Some entries give survivors of the animals treated and no T/C: the source files T/C as zero there, which appears to mark a toxic dose or a test without result, not a measured value. Some doses without a T/C left all or most animals alive at the check, yet need not have been tolerated: survival well below the control is almost never listed, so the zero probably covers shortened survival too. Survivors were counted at the toxicity check, usually on the fifth day, unless a day is given; later deaths do not show. Schedule codes are those of the source, taken here to give the interval after Q, in days (D) or hours (H), and the number of doses after X. Some doses were run more than once; the results are listed from low to high. Where survival is the endpoint, this PubChem deposit counts one and a half times the control or more as active, and values a quarter to a half above the control carry no call in these data; other NCI protocols may use other cut-offs. Some T/C values are followed by the survivors on the day toxicity was checked, most often the fifth; without a count, all were alive then.

On to `CCCCCCCCCCCCCCCC[N+](C)(C)CCSC(C)=O`, for which the survivor count (dose: 12.5 mg/kg/injection, schedule: Q01DX009 (ip), vehicle: acetone) is on record as 0 of 6; the survivor count (dose: 25.0 mg/kg/injection, schedule: Q01DX009 (ip), vehicle: acetone) was 0 of 6; the survivor count (dose: 50.0 mg/kg/injection, schedule: Q01DX009 (ip), vehicle: acetone) is given as 0 of 6; the survivor count (dose: 100.0 mg/kg/injection, schedule: Q01DX009 (ip), vehicle: acetone) is listed as 0 of 6; the survivor count (dose: 200.0 mg/kg/injection, schedule: Q01DX009 (ip), vehicle: acetone) is recorded as 0 of 6.
Turning to `CCOC(=O)C(CC)Oc1ccc(Cl)cc1` (stereo not drawn), under “dose: 200.0 mg/kg/injection, schedule: Q01DX009 (ip), vehicle: Klucel (hydroxypropylcellulose) (HPC)”, the survivor count is listed as 0 of 6.
On to `COc1ccc(CSC(=S)Nc2ccc(Cl)c(C(F)(F)F)c2)cc1`, for which the T/C under setting [1] is 125 % of control.
As for `CC1S(=O)(=O)OCCCOS1(=O)=O`, the T/C runs as follows: (dose: 12.5 mg/kg/injection, schedule: Q01DX005 (ip), vehicle: Klucel (hydroxypropylcellulose) (HPC)) 133 % of control; (dose: 25.0 mg/kg/injection, schedule: Q01DX005 (ip), vehicle: Klucel (hydroxypropylcellulose) (HPC)) 144 % of control [5 of 6 alive]. The survivor count is, setting by setting: (dose: 50.0 mg/kg/injection, schedule: Q01DX005 (ip), vehicle: Klucel (hydroxypropylcellulose) (HPC)) 0 of 6 and 2 of 6; (dose: 100.0 mg/kg/injection, schedule: Q01DX005 (ip), vehicle: Klucel (hydroxypropylcellulose) (HPC)) 0 of 6.
For the compound `CCN(CC)CC.[CH-]1CCCCC1.[CH-]1CCCCC1.[CH3-].[Cl-].[Cl-].[Sn+4]`, the survivor count is, setting by setting: (dose: 25.0 mg/kg/injection, schedule: Q01DX005 (ip), vehicle: saline) 3 of 6; under setting [2], 0 of 6; under setting [3], 0 of 6; under setting [4], 0 of 6.
`Nc1nc2ncc([N+](=O)[O-])cc2c(=O)[nH]1`: under “dose: 200.0 mg/kg/injection, schedule: Q01DX005 (ip), vehicle: saline with Tween-80”, the survivor count is reported as 3 of 5.
Regarding `COc1cc2c(cc1OC)-c1ccc(OC)c(=O)cc1CC(NC(=O)C(C)=O)C2` (stereo not drawn), the survivor count runs as follows: (dose: 2.5 mg/kg/injection, schedule: Q01DX009 (ip), vehicle: Klucel (hydroxypropylcellulose) (HPC)) 5 of 6; (dose: 5.0 mg/kg/injection, schedule: Q01DX009 (ip), vehicle: Klucel (hydroxypropylcellulose) (HPC)) 0 of 6; under setting [5], 0 of 6; under setting [6], 0 of 6; (dose: 40.0 mg/kg/injection, schedule: Q01DX009 (ip), vehicle: Klucel (hydroxypropylcellulose) (HPC)) 0 of 6. In addition, the T/C by setting is: (dose: 156.0 micrograms/kg/injection, schedule: Q01DX009 (ip), vehicle: Klucel (hydroxypropylcellulose) (HPC)) 134 % of control; (dose: 313.0 micrograms/kg/injection, schedule: Q01DX009 (ip), vehicle: Klucel (hydroxypropylcellulose) (HPC)) 142 % of control.
On to `COc1cc2ccnc(C3(OC(=O)c4ccccc4)CCN(CCc4ccccc4)CC3)c2cc1OC`, for which the survivor count runs as follows: under setting [7], 6 of 6; under setting [8], 6 of 6; under setting [9], 6 of 6.
In the case of `[CH3][Sn]([CH3])([CH3])[Cl]`, the survivor count (dose: 3.12 mg/kg/injection, schedule: Q01DX009 (ip), vehicle: saline) is reported as 0 of 6; the survivor count (dose: 6.25 mg/kg/injection, schedule: Q01DX009 (ip), vehicle: saline) is 0 of 6; the survivor count (dose: 12.5 mg/kg/injection, schedule: Q01DX009 (ip), vehicle: saline) was 0 of 6; the survivor count under setting [7] was 0 of 6; the survivor count (dose: 100.0 mg/kg/injection, schedule: Q01DX009 (ip), vehicle: saline) is 0 of 6; the survivor count under setting [1] is reported as 0 of 6.
In the case of `O=P(c1ccccc1)(c1ccccc1)c1ccccc1.O=P(c1ccccc1)(c1ccccc1)c1ccccc1.O=P(c1ccccc1)(c1ccccc1)c1ccccc1.O=P(c1ccccc1)(c1ccccc1)c1ccccc1.[Co+2].[O-][Cl+3]([O-])([O-])O`, the survivor count under setting [9] is 3 of 6.
`CC(C)=CCCc1cc(-c2cc(CCC=C(C)C)nc(N)n2)nc(N)n1`: under “dose: 240.0 mg/kg/injection, schedule: Q01DX005 (ip), vehicle: saline”, the survivor count is on record as 0 of 6.
As for `CCCCCCCCCCCCCCCCCC[n+]1cccc(C2CCCN2C)c1` (stereo not drawn) (tested in a mixture with another compound), the T/C is 134 % of control (dose: 3.12 mg/kg/injection, schedule: Q01DX009 (ip), vehicle: Klucel (hydroxypropylcellulose) (HPC)); 138 % of control (dose: 6.25 mg/kg/injection, schedule: Q01DX009 (ip), vehicle: Klucel (hydroxypropylcellulose) (HPC)); 142 % of control (dose: 12.5 mg/kg/injection, schedule: Q01DX009 (ip), vehicle: Klucel (hydroxypropylcellulose) (HPC)).
Turning to `CC(=O)Oc1[nH]c(=O)c2cccc3c2c1CCC3`, the T/C under setting [9] was 125 and 131 % of control.
Turning to `CN(C)c1ccc(N)c(N)c1`, the survivor count is given as 2 of 5 under setting [2]; 0 of 5 under setting [3]; 0 of 5 under setting [4]; 0 of 6 under setting [1]; 0 of 6 (dose: 400.0 mg/kg/injection, schedule: Q01DX009 (ip), vehicle: saline); 0 of 6 (dose: 600.0 mg/kg/injection, schedule: Q01DX009 (ip), vehicle: saline).
Take `Cc1ccc(OP(=O)(Oc2ccc(C)cc2)Oc2ccc(C)cc2)cc1.Cc1ccc(OP(=O)(Oc2ccc(C)cc2)Oc2ccc(C)cc2)cc1.[Cl][Cu][Cl]`: the survivor count reads like this: (dose: 100.0 mg/kg/injection, schedule: Q04DX003 (ip), vehicle: Klucel (hydroxypropylcellulose) (HPC)) 6 of 6; (dose: 200.0 mg/kg/injection, schedule: Q04DX003 (ip), vehicle: Klucel (hydroxypropylcellulose) (HPC)) 1 of 6; (dose: 400.0 mg/kg/injection, schedule: Q04DX003 (ip), vehicle: Klucel (hydroxypropylcellulose) (HPC)) 0 of 6.
As for `C1O[C@@H]1[C@H]1CO1`, the T/C is 142 % of control (dose: 16.5 mg/kg/injection, schedule: Q01DX009 (ip), vehicle: saline) and 145 % of control under setting [10]. Further, under “dose: 37.5 mg/kg/injection, schedule: Q01DX009 (ip), vehicle: saline”, the survivor count is 3 of 6.
For the compound `Cn1c(N)c(C(=O)Nc2ccccc2)c(=O)n(C)c1=O`, for the setting “dose: 400.0 mg/kg/injection, schedule: Q01DX001 (ip), vehicle: Klucel (hydroxypropylcellulose) (HPC)”, the survivor count was 6 of 6.
As to `Oc1c(CN2CCCCC2)ccc2cccnc12`, the survivor count (dose: 50.0 mg/kg/injection, schedule: Q01DX009 (ip), vehicle: saline with Tween-80) is reported as 6 of 6; the survivor count under setting [8] is on record as 0 of 6; the survivor count under setting [9] is 0 of 6; the survivor count (dose: 400.0 mg/kg/injection, schedule: Q01DX009 (ip), vehicle: saline with Tween-80) is reported as 0 of 6.
As to `C(COCC1CO1)OCC1CO1` (stereo not drawn), under setting [10], the T/C was 125 % of control.
In the case of `CCCCCCCCCCCCCCCCCC(=O)[O][Pb]([CH3])([CH3])[CH3]`, the survivor count is on record as 5 of 6 under setting [5] and 4 of 6 under setting [6].
